Data: US20250019350A1, “SYNTHESIS OF THE PROSTATE SPECIFIC MEMBRANE ANTIGEN (PSMA) RADIOLABELED INHIBITOR [18F]DCFPYL” (Progenics Pharmaceuticals, Inc, priority 2023, published 2025)
Further values from the same series stand in other lists.

Experiment: Radiolysis / stability of [18F]DCFPyL over time by HPLC with radiodetection (RCP, free 18F, radioactive impurities)
Type: physicochemical
Protocol: Those of ordinary skill in the art will be aware of techniques and systems for determining the radiochemical purity of a composition. In some cases, the radiochemical purity is determined using an HPLC associated with a radio-detector. Generally, the radiochemical purity is determined under ambient conditions (e.g., ambient temperature, ambient humidity, ambient light, etc.), such as in samples stored under such conditions.
Stability was assessed using reverse phase HPLC on a C18 column with a phosphate buffer/acetonitrile gradient mobile phase, and the elution profile was monitored using both UV and radiochemical detectors. Samples were analyzed either by direct injection onto the HPLC, dilution and injection or including the addition of tetraethylammonium fluoride (TEAF) into the sample before injection.
Known amounts of free ^18F either alone or spiked with TEAF were injected onto the analytic column and the eluent from the column collected over the course of a chromatogram and assaying the radioactivity using a Capintec. […] Adding TEAF into the analytic samples was incorporated into subsequent studies examining potential radiolysis of [^18F]DCFPyL to overcome some of the limitations of free ^18F quantification.
Analytical HPLC method was used. The method employs UV detection at 264 nm for chemical impurities, and an Eckert & Ziegler model B-FC-1000 gamma detector for radiochemical assays.

O=C(O)CC[C@H](NC(=O)N[C@@H](CCCCNC(=O)c1ccc([18F])nc1)C(=O)O)C(=O)O [Lot 18F-DCFPyL, 2-(3-{1-carboxy-5-[(6-[18F]fluoro-pyridine-3-carbonyl)-amino]-pentyl}ureido)-pentanedioic acid]
18F-DCFPyL (% RCP) (T = 0, 1 mg/mL sodium ascorbate, 20% ethanol, 111.5 mCi/mL at EOS): 99.43%
18F-DCFPyL (% RCP) (T = 0, 20 mg/mL sodium citrate, 20% ethanol, 104.8 mCi/mL at EOS): 89.78%
18F-DCFPyL (% RCP) (T = 0.5, 5 mg/mL sodium ascorbate, 20% ethanol, 114.6 mCi/mL at EOS): 99.61%
18F-DCFPyL (% RCP) (T = 2 hr, 1 mg/mL sodium ascorbate, 20% ethanol, 111.5 mCi/mL at EOS): 98.11%
18F-DCFPyL (% RCP) (T = 2 hr, 5 mg/mL sodium ascorbate, 20% ethanol, 114.6 mCi/mL at EOS): 99.11%
18F-DCFPyL (% RCP) (T = 2 hr, 20 mg/mL sodium citrate, 20% ethanol, 104.8 mCi/mL at EOS): 81.14%
18F-DCFPyL (% RCP) (T = 4 hr, 1 mg/mL sodium ascorbate, 20% ethanol, 111.5 mCi/mL at EOS): 97.39%
18F-DCFPyL (% RCP) (T = 4 hr, 5 mg/mL sodium ascorbate, 20% ethanol, 114.6 mCi/mL at EOS): 98.77%
18F-DCFPyL (% RCP) (T = 4 hr, 20 mg/mL sodium citrate, 20% ethanol, 104.8 mCi/mL at EOS): 78.68%
18F-DCFPyL (% RCP) (T = 6 hr, 0.5 mg/mL ascorbic acid pH 5.8, 20% ethanol, 105.8 mCi/mL at EOS): 98.56%
18F-DCFPyL (% RCP) (T = 6 hr, 1 mg/mL sodium ascorbate, 20% ethanol, 111.5 mCi/mL at EOS): 97.19%
18F-DCFPyL (% RCP) (T = 6 hr, 5 mg/mL sodium ascorbate, 20% ethanol, 114.6 mCi/mL at EOS): 98.55%
18F-DCFPyL (% RCP) (T = 10 hr, 0.5 mg/mL ascorbic acid pH 5.8, 20% ethanol, 105.8 mCi/mL at EOS): 98.58%
18F-DCFPyL (% RCP) (T = 10 hr, 1 mg/mL sodium ascorbate, 20% ethanol, 111.5 mCi/mL at EOS): 97.26%
18F-DCFPyL (% RCP) (T = 10 hr, 5 mg/mL sodium ascorbate, 20% ethanol, 114.6 mCi/mL at EOS): 98.49%
